# PubChem BioAssay AID1347076 (National Center for Advancing Translational Sciences (NCATS), 2019)
# The campaign covered roughly 400,000 compounds. About 13,000 (3.2%) were called active. The inconclusive results got no clear call from the source; some entries with a clear call stand among them for comparison. The call rests on the fitted dose curve; in most records, active means well fitted cell-killing curve with a large enough effect; inconclusive means small, poorly fitted or top-dose-only effect, or effect the other way; inactive means flat fitted curve, though single readings scatter. Potencies of inconclusive entries are doubtful fits and often do not repeat.
# Experiment: qHTS assay for MDR1-selective chemotherapeutics: Primary screen using the drug-selected MDR subline cells KB-V1; further: nearly all actives have a fitted effect of over 60% in size
# Settings: KB-V1 MDR cells viability, CellTiter-Glo, 72 h; activity change, negative = cytotoxicity: at 46.1 µM (top of the series)
# Summary of the method: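 KB-V1 MDR subline cells in DMEM (phenol-red free, 10% FBS) exposed to compounds in qHTS concentration series for 72 h at 37 degrees C. Viability read by CellTiter-Glo luminescence; concentration-effect curves fitted after normalization and correction.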
# On the % scale 0 is the no-effect control and ±100 the full control effect; potency means the concentration at half of the fitted maximal effect.
Structure (SMILES),"activity change, negative = cytotoxicity",Potency
COc1cc(C2c3c(-c4ccccc4O)n[nH]c3C(=O)N2Cc2ccco2)cc(OC)c1OC (stereo not given),inactive: 1.61%,
NS(=O)(=O)c1ccc(NC(=O)COC(=O)CNC(=O)C23CC4CC(CC(C4)C2)C3)cc1,,"inconclusive: 29.1 µM [rising, single point]"
COc1cc(OC)cc(C(=O)N2CCN(C(=O)c3ccc(-c4ccccc4)cc3)CC2)c1,,"inconclusive: 8.2 µM [cytotoxic, partial curve, poor fit]"
CCOC(=O)C1=C(C)NC(C)=C(C(=O)OCC)C1c1cccs1,,"inconclusive: 11.6 µM [cytotoxic, partial curve, poor fit]"
N#Cc1cccc(C#N)c1Oc1ccc(N)cc1,inactive: -0.68%,
COc1ccc(OC)c(CNC(=O)c2cc(S(=O)(=O)N3CCC(C)CC3)cn2C)c1,inconclusive: -26.2%,
Cc1ccc(NC(=O)c2cc(-c3cccs3)nc3ccccc23)nc1,,"inconclusive: 18.4 µM [cytotoxic, single point]"
CC(C)(C)C(=O)NNC(=O)c1cc2sccc2s1,inactive: 10.7%,
O=C(Cc1ccc(S(=O)(=O)N2CCOCC2)s1)NCCC(c1ccccc1)c1ccccc1,,"inconclusive: 29.1 µM [cytotoxic, single point]"
CCc1nc2oc3ccccc3c(=O)c2c(=O)n1-c1ccc(C)cc1,inactive: -6.87%,
CN(C(=O)CSc1nnc(C(F)(F)F)n1C)c1c(N)n(Cc2ccccc2)c(=O)[nH]c1=O,,"inconclusive: 20.6 µM [rising, single point]"
CN(C)c1ccc(/C=C(\NC(=O)c2ccccc2)C(=O)NCCCN2CCOCC2)cc1,,"inconclusive: 29.1 µM [cytotoxic, single point]"
COc1ccc(-c2cn(-c3ccc(Br)cc3)c3[n+]2CCS3)cc1,inactive: -11.2%,
Cc1[nH]n(-c2ccccc2)c(=O)c1/C=N/NC(=O)c1ccc(O)cc1O,inconclusive: -2.49%,
O=C(CSc1nc(-c2ccccc2)ns1)N1CCOCC1,inactive: 0%,
CCC(C)C1Nc2ccc(C(=O)NCc3ccc4c(c3)OCO4)cc2NC1=O (stereo not given),,"inconclusive: 7.31 µM [cytotoxic, partial curve]"
COc1ccc(S(=O)(=O)NC(=O)C2(C)CCN2C(=O)c2ccccc2CCc2ccccc2)cc1 (stereo not given),inactive: -9.62%,
COC(=O)[C@H](CCSC)NC(=O)N1CCN(Cc2ccccc2)CC1,,"inconclusive: 10.3 µM [cytotoxic, partial curve]"
O=C(NC1CCN(Cc2ccccc2)CC1)c1cccc(Br)c1,inactive: 0%,
Cc1ccc(Cc2c(-c3ccc(F)cc3)nc3ccc(Cl)cn23)cc1,inconclusive: 4.14%,
Cc1cc(C)c(S(=O)(=O)NCC(c2cccnc2)N2CCN(Cc3ccccc3)CC2)c(C)c1 (stereo not given),inactive: 20.4%,
O=C(O)CCc1c2ccc(=O)c(O)c-2oc2c(O)c(O)ccc12,inactive: -11.6%,
CC1=NN(c2ccccc2)C(=O)C1C(=O)c1ccc(Cl)cc1 (stereo not given),inactive: -16.7%,

# Shown bar-delimited: 2 of the compounds above.
Structure (SMILES) | activity change, negative = cytotoxicity | Potency
COc1cc(C2c3c(-c4ccccc4O)n[nH]c3C(=O)N2Cc2ccco2)cc(OC)c1OC (stereo not given) | inactive: 1.61% | 
COc1cc(OC)cc(C(=O)N2CCN(C(=O)c3ccc(-c4ccccc4)cc3)CC2)c1 |  | inconclusive: 8.2 µM [cytotoxic, partial curve, poor fit]

# (cont.)

Structure (SMILES),"activity change, negative = cytotoxicity",Potency
O=C(COc1ccccc1Cl)NNC(=O)c1ccc(-n2cncn2)c([N+](=O)[O-])c1,,"inconclusive: 20.6 µM [rising, single point]"
O=C(c1cccc(C(F)(F)F)c1)c1c[nH]c(C(=O)NCC2CCCO2)c1 (stereo not given),,"inconclusive: 23.1 µM [cytotoxic, partial curve, poor fit]"
COC(=O)C1CC23C=CCN4CCC5(c6ccccc6NC15C2C)C43 (stereo not given),,"inconclusive: 14.6 µM [cytotoxic, partial curve]"
O=S1(=O)CCC(N=Nc2c(O)n(Cc3ccccc3)c3ccccc23)C1 (stereo not given),,"inconclusive: 14.6 µM [cytotoxic, single point]"
Cc1cn2c(N)c(C=C3C=C(Cl)C(=O)C(Cl)=C3)c(=O)nc2s1,,"inconclusive: 2.91 µM [rising, partial curve, poor fit]"
O=C(c1ccco1)N1CCN(C(c2ccccc2F)c2nnnn2Cc2cccs2)CC1 (stereo not given),,"inconclusive: 6.51 µM [cytotoxic, partial curve]"
Cc1cccc(C)c1NC(=O)C1(C)CSCC(=O)N1Cc1cccc(F)c1 (stereo not given),,"inconclusive: 13 µM [cytotoxic, partial curve]"
COc1c(Cl)cc(C(=O)O)cc1Cl,inactive: 0%,
O=C(Nc1ccc(-n2cccn2)cc1)C1CCCCN1Cc1cccc2cccnc12 (stereo not given),,"inconclusive: 29.1 µM [cytotoxic, single point]"
COc1cc2c(c(OC)c1OC)-c1ccc(SC)c(=O)cc1C(NC(=O)c1ccccc1)CC2 (stereo not given),,active: 0.731 µM
Cc1ccc(-c2nnc(N3CCN(C(=O)COc4cccc(C)c4)CC3)c3ccccc23)cc1,,"inconclusive: 2.91 µM [cytotoxic, full curve]"
CC(OC(=O)Cn1cnc2c1c(=O)n(C)c(=O)n2C)C(=O)NC(C)c1ccc(Cl)cc1Cl (stereo not given),inactive: 18%,
O=C(O)COCCN1CCN(C(c2ccccc2)c2ccc(Cl)cc2)CC1 (stereo not given),,"inconclusive: 20.6 µM [rising, single point]"
Cc1nn(S(=O)(=O)c2ccc(C(C)(C)C)cc2)c(C)c1S(=O)(=O)N1CCOCC1,,"inconclusive: 29.1 µM [rising, single point]"
O=C(NNC(=O)C1COc2ccccc2O1)c1ccccc1O (stereo not given),,"inconclusive: 16.4 µM [cytotoxic, single point]"
COc1ccc(/C=C2\SC(N)=NC2=O)cc1,,"inconclusive: 20.6 µM [cytotoxic, single point]"
CCCc1ncc(CN2CCCC(C(=O)Nc3ccc(-c4cccc(OC)c4)cc3)C2)cn1 (stereo not given),inactive: -20.8%,
Nc1nnc(SCC(=O)Nc2cccc(F)c2)s1,inactive: 14%,
COc1nc(N)c(S(=O)(=O)c2ccc(C)cc2)cc1C#N,,"inconclusive: 29.1 µM [cytotoxic, single point]"
Cc1ccc(NC(=O)NC2CCN(CC(=O)Nc3nccs3)CC2)cc1,,"inconclusive: 11.6 µM [cytotoxic, partial curve, poor fit]"
COc1ccc(CCN2CC(C(=O)OC(C)C(=O)Nc3cccc(Cl)c3)CC2=O)cc1OC (stereo not given),,"inconclusive: 32.6 µM [rising, single point]"
CCN(CC)S(=O)(=O)c1ccc2[nH]c(=O)cc(C(=O)N(C)C3CCS(=O)(=O)C3)c2c1 (stereo not given),,"inconclusive: 20.6 µM [rising, single point]"
